Our source for the binding values is publication PMC8179929.

Protein sequences, listed by entry. Tags and fused reporters are not part of them.
UniProt Q15717: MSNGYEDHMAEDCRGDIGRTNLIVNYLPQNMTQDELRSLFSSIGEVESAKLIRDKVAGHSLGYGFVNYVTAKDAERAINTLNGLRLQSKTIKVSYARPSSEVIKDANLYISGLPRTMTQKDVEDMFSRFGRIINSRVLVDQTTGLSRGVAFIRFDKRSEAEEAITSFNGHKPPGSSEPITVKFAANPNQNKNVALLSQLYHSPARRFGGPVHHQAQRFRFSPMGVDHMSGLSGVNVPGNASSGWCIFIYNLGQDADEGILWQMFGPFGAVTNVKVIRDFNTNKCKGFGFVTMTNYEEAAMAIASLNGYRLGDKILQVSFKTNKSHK
UniProt P12956: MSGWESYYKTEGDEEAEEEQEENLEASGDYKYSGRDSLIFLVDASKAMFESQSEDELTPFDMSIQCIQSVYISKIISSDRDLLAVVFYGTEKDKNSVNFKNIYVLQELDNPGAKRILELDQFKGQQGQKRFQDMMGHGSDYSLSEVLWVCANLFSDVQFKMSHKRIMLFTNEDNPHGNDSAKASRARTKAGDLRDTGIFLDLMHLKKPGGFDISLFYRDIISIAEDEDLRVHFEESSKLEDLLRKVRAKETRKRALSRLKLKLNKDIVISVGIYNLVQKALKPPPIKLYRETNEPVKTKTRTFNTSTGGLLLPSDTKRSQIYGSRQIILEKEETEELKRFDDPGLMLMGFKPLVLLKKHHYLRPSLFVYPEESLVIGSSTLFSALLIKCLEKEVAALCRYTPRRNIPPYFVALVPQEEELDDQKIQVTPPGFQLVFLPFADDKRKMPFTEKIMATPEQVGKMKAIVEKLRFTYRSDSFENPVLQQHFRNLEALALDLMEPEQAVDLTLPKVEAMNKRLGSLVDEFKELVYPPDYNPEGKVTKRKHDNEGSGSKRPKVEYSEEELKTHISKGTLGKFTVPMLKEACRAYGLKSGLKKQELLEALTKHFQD

Assay [1] deals with T1, Pirh2-3×FLAG (human) (UniProt Q96PM5).
T1 sequence: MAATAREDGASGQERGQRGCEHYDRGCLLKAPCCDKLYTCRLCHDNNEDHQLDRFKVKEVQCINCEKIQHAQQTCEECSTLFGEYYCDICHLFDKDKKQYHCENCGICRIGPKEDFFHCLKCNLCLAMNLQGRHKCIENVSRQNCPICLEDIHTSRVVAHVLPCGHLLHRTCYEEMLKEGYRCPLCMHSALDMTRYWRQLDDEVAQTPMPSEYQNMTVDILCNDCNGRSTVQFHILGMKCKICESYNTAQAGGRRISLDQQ
Put plainly: co-IP; HEK293T transiently transfected with Pirh2-3×FLAG or empty vector; lysates in modified RIPA buffer on anti-FLAG M2 agarose 4 h at 4 °C, eluted with 3× FLAG peptide; western blot for endogenous HuR.

Assay [2] concerns the target T2, RING domain of Pirh2 (RING-GST) (human) (UniProt Q96PM5).
T2 sequence: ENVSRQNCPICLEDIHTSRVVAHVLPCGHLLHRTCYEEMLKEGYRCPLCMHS
Put plainly: pull-down; purified GST-tagged Pirh2 domains, full-length Pirh2-GST and GST incubated with whole-cell extract from HEK293T; western blot for HuR; only the target purified.

For assay [3], the target named is HuR (ELAVL1), endogenous in HeLa (human (endogenous in HeLa)) (UniProt Q15717). Description: co-IP; extract of 1 × 10^7 HeLa cells, 5 μg anti-HuR mouse monoclonal antibodies or mouse IgG, 4 °C 4 h, Protein G magnetic beads; western blot.
In assay [4] the target is HuR-3×FLAG (UniProt Q15717). Description: co-IP; HeLa cells with ectopically expressed HuR-3×FLAG or empty pIRES vector; western blot for endogenous Pirh2.
Assay [5] concerns the target HuR-GST (UniProt Q15717). Put plainly: pull-down; reciprocal pull-downs of Pirh2 with Ku70-GST, HuR-GST or GST alone (Supplementary Fig. S1); source of Pirh2 not given, by the general method a cell lysate; only the target purified.
Assay [6] addresses Ku70-GST (UniProt P12956). Described as above.
Assay [7] has as its target HuR-GST (UniProt Q15717). Put plainly: pull-down; purified HuR-GST (GST as control) with cellular extract from HEK293T cells; western blot for endogenous Pirh2; only the target purified.

These are yes or no findings as the source states them, for the method shown. In cells and extracts the contact can be indirect. Some results given as binding are weak or reduced against the parent protein; the word gives no strength. For some of these results: Sequences can lack the tags named with a protein.

For “HuR (ELAVL1), endogenous in HEK293T (from UniProt Q15717 1-326)”, the binding entry in assay [1] and in assay [2] was “binds” throughout.

B1: Pirh2, endogenous in HeLa (enzyme, UniProt Q96PM5 1-261)
chain: MAATAREDGASGQERGQRGCEHYDRGCLLKAPCCDKLYTCRLCHDNNEDHQLDRFKVKEVQCINCEKIQHAQQTCEECSTLFGEYYCDICHLFDKDKKQYHCENCGICRIGPKEDFFHCLKCNLCLAMNLQGRHKCIENVSRQNCPICLEDIHTSRVVAHVLPCGHLLHRTCYEEMLKEGYRCPLCMHSALDMTRYWRQLDDEVAQTPMPSEYQNMTVDILCNDCNGRSTVQFHILGMKCKICESYNTAQAGGRRISLDQQ
On to B1, for which the binding entry in assay [3] and in assay [4] was “binds” throughout.

B2: Pirh2 (prey of the reciprocal pull-downs of Supplementary Fig. S1) (enzyme, UniProt Q96PM5 1-261)
chain: MAATAREDGASGQERGQRGCEHYDRGCLLKAPCCDKLYTCRLCHDNNEDHQLDRFKVKEVQCINCEKIQHAQQTCEECSTLFGEYYCDICHLFDKDKKQYHCENCGICRIGPKEDFFHCLKCNLCLAMNLQGRHKCIENVSRQNCPICLEDIHTSRVVAHVLPCGHLLHRTCYEEMLKEGYRCPLCMHSALDMTRYWRQLDDEVAQTPMPSEYQNMTVDILCNDCNGRSTVQFHILGMKCKICESYNTAQAGGRRISLDQQ
For B2, the binding result in assay [5] and in assay [6] was “binds” each time.

B3: Pirh2, endogenous in HEK293T (enzyme, UniProt Q96PM5 1-261)
chain: MAATAREDGASGQERGQRGCEHYDRGCLLKAPCCDKLYTCRLCHDNNEDHQLDRFKVKEVQCINCEKIQHAQQTCEECSTLFGEYYCDICHLFDKDKKQYHCENCGICRIGPKEDFFHCLKCNLCLAMNLQGRHKCIENVSRQNCPICLEDIHTSRVVAHVLPCGHLLHRTCYEEMLKEGYRCPLCMHSALDMTRYWRQLDDEVAQTPMPSEYQNMTVDILCNDCNGRSTVQFHILGMKCKICESYNTAQAGGRRISLDQQ
As for B3, the binding result in assay [7] is listed as “binds”.
